We go through 43 compounds from the supplement of paper PMC12873370.

Each structure is given as a SMILES string. Several values for one entry are separate records, joined by “and”; a condition that tells them apart may be missing. Equal values may be shown once. The list shows a part of the results. Single values are uncertain, as repeats are few or missing.

Test [1] concerns MEPP (mouse ovarian epithelium Trp53/Pten KO). The test can be described thus: cell viability relative to untreated (fraction); higher = less growth inhibition. The settings on record: 5 µM; 3 days.
For test [2], the system named is PREPP (mouse prostate epithelium Trp53/Pten KO). The description is as above. The settings on record: 5 µM; 3 days.

Turning to `O=C(C=Cc1ccc(O)c(O)c1)O[C@H]1[C@H](O)C[C@](O)(C(=O)O)C[C@H]1OC(=O)C=Cc1ccc(O)c(O)c1`, the figures for the cell viability in test [1] and in test [2] were 1 and 0.871, respectively.

Regarding `CCOC(N)=O`, the cell viability is 1.09 in test [1] and 1 in test [2].

With `NCCCCCC(=O)O`, the cell viability worked out at 1.05 in test [1] and 0.936 in test [2].

For the compound `COc1ccc(C[C@H](N)C(=O)N[C@H]2[C@@H](O)[C@H](n3cnc4c(N(C)C)ncnc43)O[C@@H]2CO)cc1`, the cell viability in test [1] is 0.415; in test [2], 0.302.

As to `Cc1cn([C@H]2C[C@H](O)[C@@H](CO)O2)c(=O)[nH]c1=O`, the cell viability in test [1] turned out to be 1.02; in test [2], 0.942.

`O=C(O)C1(O)C[C@@H](O)C(O)[C@H](O)C1` (stereo partly specified): the values for the cell viability in test [1] and in test [2] were 1.12 and 0.932, respectively.

As to `CC(=O)c1cc(O)ccc1O`, the cell viability in test [1] stood at 1.09; in test [2], 0.747.

With `NC(=O)c1cn(Cc2c(F)cccc2F)nn1`, the cell viability in test [1] turned out to be 0.852; in test [2], 1.01.

As for `CC(C)CC(=O)O`, the cell viability in test [1] was found to be 1.34; in test [2] it was 0.746.

Consider `C=CC(=O)Nc1cc2c(Nc3ccc(F)c(Cl)c3)ncnc2cc1OCCCN1CCOCC1`, for which the cell viability came out at 0.908 in test [1] and 0.293 in test [2].

As for `CC(=O)N[C@@H](C)C(=O)O`, the cell viability in test [1] stood at 0.913; in test [2], 0.721.

For the compound `CC1=CC(=O)C(C(C)C)=CC1=O`, the cell viability in test [1] worked out at 1.02; in test [2] it was 0.911.

Consider `C[N+](C)(C)CCOP(=O)([O-])OC[C@H](O)CO`, for which the cell viability in test [1] amounted to 1.05; in test [2], 1.02.

Turning to `O=C(O)c1cn(C2CC2)c2cc(N3CCNCC3)c(F)cc2c1=O`, the cell viability in test [1] stood at 1.06; in test [2] it was 0.872.

For `O=C1C[C@@H](c2ccc(O)c(O)c2)Oc2cc(O)cc(O)c21`, the cell viability in test [1] was found to be 0.93; in test [2], 0.907.

In the case of `Cn1ccc(=O)n(C)c1=O`, the cell viability in test [1] stood at 0.86; in test [2], 1.15.

As for `COC1=CC(=O)C[C@@H](C)[C@]12Oc1c(Cl)c(OC)cc(OC)c1C2=O`, the cell viability is 0.835 in test [1] and 0.89 in test [2].

As to `C=C[C@]1(C)C[C@@H](OC(=O)CS[C@@H]2C[C@H]3CC[C@@H](C2)N3C)[C@]2(C)[C@H](C)CC[C@]3(CCC(=O)[C@H]32)[C@@H](C)[C@@H]1O`, the values for the cell viability in test [1] and in test [2] were 0.886 and 1.18, respectively.

Take `CCCCC[C@H](O)/C=C/[C@H]1[C@H](O)CC(=O)[C@@H]1CCCCCCC(=O)O`: the cell viability worked out at 0.823 in test [1] and 0.897 in test [2].

Take `CC12CCC(CC1=O)C2(C)C` (stereo unspecified): the cell viability in test [1] is 0.982 and 0.91; in test [2], 1.08 and 0.863.

As for `COc1cc(C[C@H]2C(=O)OC[C@@H]2Cc2ccc(OC)c(OC)c2)ccc1O`, the cell viability in test [1] came to 0.871; in test [2], 0.853.

Take `N=C(N)NS(=O)(=O)c1ccc(N)cc1`: the cell viability amounted to 1.19 in test [1] and 0.935 in test [2].

On to `COc1ccc(C[C@H]2COC(=O)[C@@H]2Cc2ccc(O[C@@H]3O[C@H](CO)[C@@H](O)[C@H](O)[C@H]3O)c(OC)c2)cc1OC`, for which the cell viability in test [1] was 1.17; in test [2], 0.879.

For the compound `CC(=O)NC1C(O)OC(CO)C(O)C1O` (stereo unspecified), the values for the cell viability in test [1] and in test [2] were 0.892 and 1.08, respectively.

In the case of `CC(=O)OCC[N+](C)(C)C`, the cell viability in test [1] was 0.81 and 1.2; in test [2] it was 0.973 and 0.894.

Consider `OC(Cn1cncn1)(Cn1cncn1)c1ccc(F)cc1F`, for which the cell viability in test [1] was determined as 0.93; in test [2] it was 0.97.

On to `OC[C@@H]1OC(O)[C@@H](O)[C@H](O)[C@H]1O` (stereo partly specified), for which the cell viability in test [1] was 1.01; in test [2] it was 0.88.

For `Cc1onc(-c2ccccc2)c1C(=O)N[C@@H]1C(=O)N2[C@@H]1SC(C)(C)[C@@H]2C(=O)O`, the cell viability in test [1] came to 0.927; in test [2] it was 0.933.

On to `Oc1c(Br)cc(Br)c2cccnc12`, for which the cell viability in test [1] amounted to 1.46; in test [2] it was 0.875.

Regarding `Cc1cc(C)n(C)n1`, the cell viability worked out at 0.928 in test [1] and 1.1 in test [2].

On to `O=C1OC[C@H]2O[C@@H](O)[C@H](O)[C@@H](O)[C@@H]2OC(=O)c2cc(O)c(O)c(O)c2-c2c(O)c(O)c3oc(=O)c4c(c(O)c(O)c5oc(=O)c2c3c54)-c2c1cc(O)c(O)c2O`, for which the cell viability was 0.963 in test [1] and 0.979 in test [2].

As for `CC1=C(/C=C/C(C)=C/C=C/C(C)=C/C(=O)O)C(C)(C)CCC1`, the cell viability turned out to be 1.02 in test [1] and 1.12 in test [2].

In the case of `O=C(O)c1cc(/N=N/c2ccc(O)c(C(=O)O)c2)ccc1O`, the cell viability was found to be 1.22 in test [1] and 1.09 in test [2].

On to `Cc1cccc(O)c1`, for which the cell viability is 1.01 in test [1] and 0.895 in test [2].

With `COc1c(O)cc2occ(-c3ccc(O)cc3)c(=O)c2c1O`, the cell viability in test [1] turned out to be 1.16; in test [2], 0.99.

`CC1(C)S[C@@H]2[C@H](NC(=O)[C@H](N)c3ccc(O)cc3)C(=O)N2[C@H]1C(=O)O`: the cell viability in test [1] was 1.06 and 0.798; in test [2], 0.839 and 1.01.

For the compound `Cc1nc(C)c(C)nc1C`, the cell viability worked out at 0.997 in test [1] and 1.02 in test [2].

Take `NC(=O)NCCCC[C@H](N)C(=O)O`: the cell viability in test [1] stood at 1.01; in test [2], 0.992.

In the case of `O=C1c2c(O)cccc2Cc2cccc(O)c21`, the cell viability in test [1] stood at 0.98; in test [2], 1.08.

For the compound `C[N+](C)(C)C[C@H](O)CC(=O)[O-]`, the results for the cell viability in test [1] and in test [2] were 0.931 and 0.678, respectively.

`CC1(C)CCC[C@](C)([C@H]2CC[C@]3(C)[C@@H]2[C@H](O)C[C@@H]2[C@@]4(C)CC[C@H](O)C(C)(C)[C@@H]4[C@H](O)C[C@]23C)O1`: the cell viability in test [1] came to 0.997; in test [2] it was 0.941.

Consider `COc1ccccc1OCC(O)CN1CCN(CC(=O)Nc2c(C)cccc2C)CC1` (stereo unspecified), for which the cell viability is 1.17 in test [1] and 1.13 in test [2].

`CCCCCCCCCCCC1=C(O)C(=O)C=C(O)C1=O`: the results for the cell viability in test [1] and in test [2] were 0.859 and 0.716, respectively.
